# Reference: US20260191982A1 (Genome & Company, Inc., priority 2022, published 2026)
# Assay: general procedure: Fmoc solid-phase peptide synthesis; 2-CTC resin; Fmoc-Xxx-Wang resin (loading 0.60 mmol/g; Bachem); diisopropyl carbodiimide/HOBT; HBTU/DIEA; HATU/DIEA in solution
# Settings: conjugation step
row,Substance,conjugation yield [% yield]
1,AF-Cit-Lys(PEG5-ma)-Tyr,16

# Same assay, conditions: conjugation step, UV purity (UPLC-MS)
row,Substance,final HPLC purity [% UV purity]
1,AF-Cit-Lys(PEG5-ma)-Tyr,100

# Same assay, conditions: late stage modification step
row,Substance,step yield [% yield]
1,MMAF-Cit-Lys(ma)-Tyr-OH,29

# Same assay, conditions: late stage modification step, UV purity (UPLC-MS)
row,Substance,final HPLC purity [% UV purity]
1,MMAF-Cit-Lys(ma)-Tyr-OH,95

# Same assay, conditions: whole synthesis, UV purity (UPLC-MS)
row,Substance,purity (crude or final not stated) [%]
1,DM1-Mcc-Cit-Lys(PEG5-Mal-Cys-Ac)-Tyr-OH,89
2,DM1-Mal-Phe-Lys-Lys(PEG4-Mal-Cys-Ac)-Phe-OH,98
3,AF-Arg-Lys(PEG4-Mal-Cys-Ac)-Phe-OH,94
4,AF-Arg-Phe-Lys(PEG4-Mal)-OH,98
5,DM1-Mcc-Phe-Lys(PEG5-Mal-Cys-Ac)-Tyr-OH,89
6,DM1-Mcc-Phe-Cit-Lys(PEG5-Mal-Cys-Ac)-Tyr-OH,99
7,AF-Cit-Lys(PEG4-Mal-Cys-Ac)-Phe-OH,90
8,AF-Arg-Lys(PEG4-Mal)-Phe-OH,96
9,DM1-Mal-Phe-Cit-Phe-Lys(PEG4-Mal-Cys-Ac)-OH,94
10,DM1-Mal-Phe-Cit-Lys(PEG4-Mal-Cys-Ac)-Phe-OH,97
11,AF-Arg-Phe-Lys(PEG4-Mal-Cys-Ac)-OH,90
12,ACit-Phe-Lys(PEG4-Mal-Cys-Ac)-OH,96
13,ACit-Lys(PEG4-Mal-Cys-Ac)-Phe-OH,96
